Experimental data reported in the odorant receptor screen of Mainland et al. (2015).
“And” between values parts separate entries of the source, which are not always exact repeats. Identical values can stand only once. The list shows a part of the results. Single wells; the ratio to wells without odorant was worked out here, and repeats agree poorly.

Tests used:
Assay in all cases: odorant receptor activation (CRE luciferase / Renilla) (fold of no-odor wells); higher = more activation
Conditions in all cases: 100 µM
[1] = test system: OR8B3 H20R/Q24R/V34I/M114I clone 1727
OR8B4 E22G clone 1227 = test system: OR8B4 E22G clone 1227
[2] = test system: OR8B4 Y131H/C140F/C178R clone 1440
OR8B8 clone 1226 = test system: OR8B8 clone 1226
OR8B8 clone 1504 = test system: OR8B8 clone 1504
OR8D1 clone 1142 = test system: OR8D1 clone 1142
OR8D2 clone 1179 = test system: OR8D2 clone 1179
[3] = test system: OR8D4 C120Y/R133K/F200L/L283P/R298K clone 1072
OR8G1 clone 1395 = test system: OR8G1 clone 1395
OR8G5 clone 1323 = test system: OR8G5 clone 1323
OR8G5 clone 1493 = test system: OR8G5 clone 1493
OR8H1 clone 1388 = test system: OR8H1 clone 1388
[4] = test system: OR8H2 A105V/I154M/V158L/Y169C/D170Y/Y259H/V284M clone 1214
OR8H3 P137S clone 1215 = test system: OR8H3 P137S clone 1215
OR8I2 clone 1213 = test system: OR8I2 clone 1213
OR8J1 Y120C clone 1500 = test system: OR8J1 Y120C clone 1500
OR8J3 clone 1149 = test system: OR8J3 clone 1149
OR8K1 clone 1431 = test system: OR8K1 clone 1431
OR8K3 L122R clone 1195 = test system: OR8K3 L122R clone 1195
OR8K5 clone 1150 = test system: OR8K5 clone 1150

| SMILES | odorant receptor activation [1] | odorant receptor activation (OR8B4 E22G clone 1227) | odorant receptor activation [2] | odorant receptor activation (OR8B8 clone 1226) | odorant receptor activation (OR8B8 clone 1504) | odorant receptor activation (OR8D1 clone 1142) | odorant receptor activation (OR8D2 clone 1179) | odorant receptor activation [3] | odorant receptor activation (OR8G1 clone 1395) | odorant receptor activation (OR8G5 clone 1323) | odorant receptor activation (OR8G5 clone 1493) | odorant receptor activation (OR8H1 clone 1388) | odorant receptor activation [4] | odorant receptor activation (OR8H3 P137S clone 1215) | odorant receptor activation (OR8I2 clone 1213) | odorant receptor activation (OR8J1 Y120C clone 1500) | odorant receptor activation (OR8J3 clone 1149) | odorant receptor activation (OR8K1 clone 1431) | odorant receptor activation (OR8K3 L122R clone 1195) | odorant receptor activation (OR8K5 clone 1150) |
| --- | --- | --- | --- | --- | --- | --- | --- | --- | --- | --- | --- | --- | --- | --- | --- | --- | --- | --- | --- | --- |
| CCCCCCOC(=O)CCC [hexyl butyrate] | 0.764 | 1.23 | 0.822 | 1.08 | 1.04 and 1.07 | 1 | 1.13 | 0.983 | 0.608 | 0.815 and 0.957 | 1.13 and 0.792 | 0.758 | 1.46 | 0.967 | 1.21 | 0.983 and 0.613 | 1.09 | 0.892 | 0.921 | 0.928 |
| CC(C)C=O [isobutyraldehyde] | 0.845 | 0.941 | 0.831 | 0.768 | 0.953 and 1.19 | 0.994 | 1.01 | 1.18 | 0.719 | 0.72 and 1 | 1.28 and 1.52 | 0.77 | 1.03 | 0.991 | 1.34 | 0.968 and 0.955 | 0.959 | 0.964 | 0.909 | 1.11 |
| CC(=O)OC(C)(C)C1CC=C(C)CC1 (stereo unspecified) [terpinyl acetate] | 0.163 | 1.48 | 0.869 | 1.12 | 1.02 | 1.23 | 1.19 | 1.36 | 0.844 | 0.828 | 0.881 | 1.05 | 1.09 | 1.18 | 1.46 | 0.953 | 1.82 | 0.997 | 1.1 | 1.38 |
| C=CCc1ccc(O)c(OC)c1 [eugenol] | 0.778 | 1.75 and 1.32 | 1.51 and 1.4 | 1.52 and 1.23 | 1.8 and 0.937 and 1.32 | 4.19 and 1.71 | 2.08 and 1.22 | 1.75 and 1.68 | 1.55 and 1.37 | 1.07 and 1.49 | 1.58 and 0.902 and 1.17 | 1.96 and 1.09 | 2.75 and 1.36 | 2.33 and 1.43 | 1 and 1.17 | 1.84 and 1.04 and 1.35 | 2.01 and 1.27 | 1.69 and 1.31 | 3.55 and 1.59 | 1.14 and 1.02 |
| CCCCCCCC=O [octyl aldehyde] | 0.926 | 1.2 | 0.756 | 1.17 | 0.811 | 0.911 | 0.955 | 1.23 | 0.835 | 0.953 | 0.94 | 0.934 | 1.19 | 1.47 | 1.24 | 0.951 | 1.07 | 0.846 | 1.31 | 0.929 |
| CC1=CCC(C(C)(C)O)CC1 (stereo unspecified) [terpineol] | 0.15 | 1.2 | 1.06 | 1.09 | 0.84 | 1.22 | 0.944 | 1.24 | 1.13 | 0.882 | 0.721 | 1.02 | 0.94 | 1.21 | 1.27 | 0.833 | 1.32 | 0.994 | 0.878 | 1.31 |
| C=C(C)C1CC=C(C)C(=O)C1 (stereo unspecified) [r-carvone] | 1.6 | 1.65 | 1.1 | 0.913 | 1.08 | 0.934 | 0.843 | 1.29 | 1.07 | 0.652 | 0.708 | 1.27 | 1.15 | 1.14 | 1.27 | 0.897 | 1.11 | 1.19 | 1.22 | 1.07 |
| CCCCO [1-butanol] | 0.149 | 1.12 | 0.986 | 1.15 | 1.16 | 0.94 | 0.827 | 2.3 | 1.37 | 1 | 1.18 | 1.49 | 0.813 | 0.885 | 0.917 | 0.974 | 1.03 | 0.725 | 0.719 | 1.02 |
| CCCCCCCCCC=O [decyl aldehyde] | 0.399 | 1.12 | 1.59 | 1.21 | 1.16 | 1.58 | 1.14 | 1.31 | 1.47 | 1.16 | 1.01 | 1.3 | 1.29 | 1.11 | 1.09 | 1.15 | 1.09 | 1.41 | 1.11 | 1.16 |
| c1ccc(Oc2ccccc2)cc1 [diphenyl ether] | 0.448 | 0.991 | 1.13 | 0.912 | 1.11 | 1.24 | 0.963 | 1.03 | 1.08 | 1.03 | 0.78 | 0.84 | 1.1 | 0.9 | 0.886 | 1.35 | 0.867 | 0.996 | 0.97 | 0.869 |
| CC(C)(O)CCCC1=CCC(C=O)CC1 (stereo unspecified) [lyral] | 0.657 | – | – | – | – | – | – | – | – | – | – | – | – | – | – | – | – | – | – | – |
| C=C(C)C1CC=CCC1 (stereo unspecified) [r-limonene] | 1.44 | 1.18 and 0.404 | 1.31 and 1.25 | 1.04 and 0.463 | 1.02 and 0.552 and 1.19 | 0.947 and 0.524 | 0.98 and 0.578 | 1.39 and 2.48 | 1 and 0.966 | 0.836 and 0.472 | 0.879 and 1.22 and 0.812 | 1.32 | 1.26 and 0.534 | 1.4 and 0.596 | 1.24 and 0.418 | 0.864 and 0.954 and 0.95 | 1.23 and 0.779 | 1.53 and 1.09 | 0.903 and 0.457 | 1.01 and 0.636 |
| CC(C)CC(=O)O [isovaleric acid] | 0.992 | 1.33 | 0.924 | 1.47 | 1 | 1.07 | 0.983 | 1.31 | 0.978 | 0.668 | 1.12 | 1.02 | 1.1 | 1.46 | 1.35 | 0.915 | 1.12 | 0.829 | 1.12 | 1.03 |
| COc1ccccc1O [guaiacol] | 0.656 | 0.968 | 0.809 | 0.931 | 0.712 and 1.14 | 0.95 | 0.915 | 2.78 | 0.6 | 0.801 and 1.02 | 1.01 and 1.34 | 0.714 | 1.08 | 0.934 | 1.27 | 0.659 and 0.975 | 0.986 | 0.916 | 0.846 | 1.06 |
